The values that follow come from patent USRE46170E1 (Novo Nordisk A/S, priority 2005, dated 2016).

This data set in a line: general procedure: peptide synthesis; polystyrene resin with 2-chlorotrityl chloride linker (1.4 mmol/g), used for the acyl side-chain building block. The following applies: lipidation step.
Setting [1] is: analytical HPLC (C4, neutral and acidic buffers), run 1.

Several values for one entry are separate records, joined by “and”; a condition that tells them apart may be missing. Equal entries are not always repeated.

For the substance “N^εB29-(3-Carboxy-5-hexadecandioylamino-benzoyl) desB30 human insulin”, the “final HPLC purity” value under setting [1] is 96.5% and 100%. In the case of “N^εB29-(3-Carboxy-5-octadecandioylaminobenzoyl) des(B30) human insulin”, the “final HPLC purity” value under setting [1] was 96.0% and 100%. Regarding “N^εB29-(3-carboxy-4-hexdecandioylaminobenzoyl) desB30 human insulin”, the “final HPLC purity” value was 83.4% (acidic HPLC, 214 nm) and 92.6% (neutral HPLC, 214 nm). For “N^εB29-[3-Carboxy-5-(octadecandioyl-N-carboxyethylglycin)amino-benzoyl] desB30 insulin”, the “final HPLC purity” value is listed as 100% (acidic HPLC) and 93.8.5% (neutral HPLC). Under “overall for coupling and hydrolysis”, the step yield is reported as 18%. Regarding “N^εB29-{4-[2-(4-carboxymethylphenyl)ethyl]phenyl}acetyl-γ-L-glutamyl desB30 human insulin”, the “final HPLC purity” value stood at 98.8% (acidic HPLC, 214 nm) and 99.44% (neutral HPLC, 214 nm).
